Reference: publication PMC6323126
No constants are given. Whether binding was seen depends on the method and setting. Binding calls can cover weak binding; strength is not graded here.

Biological target: T1, STRN3 coiled-coil domain (CC, amino acid residues 64–145) (human) (UniProt Q13033)
T1 sequence: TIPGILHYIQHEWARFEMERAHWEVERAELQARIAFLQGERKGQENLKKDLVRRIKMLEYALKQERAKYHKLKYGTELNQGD
Test: pull-down; MBP pulldown: MBP-tagged protein, partner and amylose resin mixed at 4 °C for 1 h in 20 mM HEPES (pH 7.5), 100 mM NaCl; eluted with 20 mM maltose; SDS-PAGE, Coomassie staining; both purified

binding: binds
Substance: regulatory A subunit of PP2A (PP2Aa) (human)
